{"source": "the supplement of paper PMC3334620", "note": "Over roughly 33,000 sequences, “E-score (-0.5 to 0.5)” has its median near -8e-05; the highest 2% begin near 0.23. Some of the results follow."}
{"molecular_target": "T1, Nrg2 (UniProt P38082)", "T1 sequence": "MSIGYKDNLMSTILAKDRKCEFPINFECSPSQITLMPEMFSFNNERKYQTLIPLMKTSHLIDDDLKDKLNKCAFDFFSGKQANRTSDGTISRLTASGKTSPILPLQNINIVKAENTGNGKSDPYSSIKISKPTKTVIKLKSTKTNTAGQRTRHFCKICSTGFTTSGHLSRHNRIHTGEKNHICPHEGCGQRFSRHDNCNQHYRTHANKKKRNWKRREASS", "experiment": "PBM E-score (8-mer binding enrichment) (E-score (-0.5 to 0.5)); higher = stronger / more preferred TF binding", "conditions": "protein concentration: 100 nM; construct: GST-full length", "description": "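Universal 'all 10-mer' protein binding microarrays (Agilent AMADID 015681) probed with GST-tagged S. cerevisiae TFs (full-length or DBD) made by in vitro transcription/translation (PURExpress), about 100-200 nM. Bound TF was detected with fluorescent anti-GST. Each ungapped 8-mer (which stands for itself and its reverse complement) is scored by the PBM enrichment score (E-score), a modified Wilcoxon-Mann-Whitney statistic from -0.5 to +0.5, computed with the Universal PBM Analysis Suite. Scale: above 0.35 generally sequence-specific binding.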"}
{"sequence": "AGCATTCA", "PBM E-score": -0.0323}
{"sequence": "ATCCATAA", "PBM E-score": 0.177}
{"sequence": "ACGGTAAT", "PBM E-score": -0.0837}
{"sequence": "AGTGATTC", "PBM E-score": 0.0833}
{"sequence": "ACATCAGA", "PBM E-score": 0.0456}
{"sequence": "GCGTAAGA", "PBM E-score": -0.141}
{"sequence": "AGCCTGTA", "PBM E-score": -0.126}
{"sequence": "AGACGTGC", "PBM E-score": 0.0659}
{"sequence": "AACGGAGG", "PBM E-score": -0.0849}
{"sequence": "AATAGGCG", "PBM E-score": 0.175}
{"sequence": "GACTACCC", "PBM E-score": -0.061}
{"sequence": "AAAATCCA", "PBM E-score": 0.112}
{"sequence": "CGCCTACC", "PBM E-score": -0.0625}
{"sequence": "AACTCTGT", "PBM E-score": 0.086}
{"sequence": "ACCATCAC", "PBM E-score": -0.0188}
{"sequence": "GCGAACTA", "PBM E-score": 0.149}
{"sequence": "AGCATTGC", "PBM E-score": -0.00194}
{"sequence": "CGACCGGC", "PBM E-score": 0.034}
{"sequence": "ACGTTTCA", "PBM E-score": -0.0233}
{"sequence": "CGGCAAAG", "PBM E-score": 0.0628}
{"sequence": "GGGTACAA", "PBM E-score": 0.206}
{"sequence": "GGTATCCA", "PBM E-score": -0.00467}
{"sequence": "AAACATCT", "PBM E-score": -0.114}
{"sequence": "AGTAATCG", "PBM E-score": 0.115}
{"sequence": "ACATCCTG", "PBM E-score": 0.105}
{"sequence": "GTTGGTCA", "PBM E-score": 0.229}
{"sequence": "AACTAGCA", "PBM E-score": 0.127}
{"sequence": "AGATCTGC", "PBM E-score": 0.0227}
{"sequence": "AGACTGCT", "PBM E-score": -0.125}
{"sequence": "GCGTTCCC", "PBM E-score": -0.043}
{"sequence": "GTCCTACA", "PBM E-score": 0.151}
{"sequence": "AGCATAAG", "PBM E-score": 0.127}
{"sequence": "GGACGTTA", "PBM E-score": -0.00032}
{"sequence": "ACTTGATC", "PBM E-score": 0.118}
{"sequence": "ATCACATC", "PBM E-score": 0.0387}
{"sequence": "AATCTGTA", "PBM E-score": 0.0668}
{"sequence": "CTCAGATA", "PBM E-score": 0.11}
{"sequence": "AACTTCGA", "PBM E-score": 0.0954}
{"sequence": "CAGGCGCA", "PBM E-score": -0.114}
{"sequence": "AAGTATGT", "PBM E-score": 0.118}
{"sequence": "CTTATTGC", "PBM E-score": -0.0715}
{"sequence": "AATAACAT", "PBM E-score": 0.146}
{"sequence": "AGAACGTG", "PBM E-score": 0.149}
{"sequence": "CGGTGGGC", "PBM E-score": -0.184}
{"sequence": "CAACCTTG", "PBM E-score": 0.0858}
{"sequence": "TTGCGCAA", "PBM E-score": 0.187}
{"sequence": "TAGGCGGA", "PBM E-score": 0.0991}
{"sequence": "AGCAGTGC", "PBM E-score": -0.287}
{"sequence": "ACATCGAC", "PBM E-score": -0.0585}
{"sequence": "TAGGGTCA", "PBM E-score": 0.218}
{"sequence": "AATTTACT", "PBM E-score": 0.118}
{"sequence": "AGACCGCC", "PBM E-score": 0.0873}
{"sequence": "ATCACCAA", "PBM E-score": 0.148}
{"sequence": "CCCGGACG", "PBM E-score": -0.253}
{"sequence": "ATCCCACC", "PBM E-score": 0.0587}
{"sequence": "CCCAGAGG", "PBM E-score": -0.233}
{"sequence": "CGCATTTA", "PBM E-score": 0.0478}
{"sequence": "ATCCGAAG", "PBM E-score": -0.0314}
{"sequence": "TTCCGCAA", "PBM E-score": 0.114}
{"sequence": "AGGCGCAA", "PBM E-score": 0.13}
{"sequence": "ATATCCCG", "PBM E-score": 0.111}
{"sequence": "CATAGTAC", "PBM E-score": -0.0256}
{"sequence": "GGTTCCGA", "PBM E-score": 0.0687}
{"sequence": "GAACCCTC", "PBM E-score": -0.149}
{"sequence": "CAGTTTCA", "PBM E-score": 0.0515}
{"sequence": "CGTCTATC", "PBM E-score": -0.167}
{"sequence": "CGAACTAG", "PBM E-score": 0.0773}
{"sequence": "CTTGTAGA", "PBM E-score": -0.258}
{"sequence": "GTACCCAC", "PBM E-score": -0.153}
{"sequence": "GTAACATA", "PBM E-score": 0.0856}
{"sequence": "CCACTATC", "PBM E-score": 0.0741}
{"sequence": "GTTTGCTA", "PBM E-score": 0.0143}
{"sequence": "GAACTTAA", "PBM E-score": -0.0517}
{"sequence": "AGGCACGC", "PBM E-score": -0.109}
{"sequence": "TTAACGAA", "PBM E-score": 0.14}
{"sequence": "ATGAGAGC", "PBM E-score": 0.00785}
{"sequence": "GTATGACA", "PBM E-score": -0.0684}
{"sequence": "ATCATTGA", "PBM E-score": 0.0568}
{"sequence": "CTTCCGCC", "PBM E-score": -0.106}
{"sequence": "TACGTCAA", "PBM E-score": -0.13}
{"sequence": "CCTGAGCG", "PBM E-score": -0.0529}
{"sequence": "AACTAATG", "PBM E-score": 0.194}
{"sequence": "AACCCAGA", "PBM E-score": 0.0315}
{"sequence": "ATTCCTTA", "PBM E-score": 0.0604}
{"sequence": "ACCATTAA", "PBM E-score": 0.126}
{"sequence": "GCAGTGAA", "PBM E-score": 0.211}
{"sequence": "AACGGTGT", "PBM E-score": -0.0219}
{"sequence": "CACACATA", "PBM E-score": -0.033}
{"sequence": "CAGTACTC", "PBM E-score": -0.171}
{"sequence": "CCGTGACC", "PBM E-score": -0.211}
{"sequence": "CTGTGCAA", "PBM E-score": 0.0249}
{"sequence": "CCCTAGTC", "PBM E-score": -0.159}
{"sequence": "AGGCTCTC", "PBM E-score": -0.305}
{"sequence": "CTGACGCA", "PBM E-score": -0.0803}
{"sequence": "GAAGGCTC", "PBM E-score": -0.256}
{"sequence": "CCACCGTA", "PBM E-score": -0.057}
{"sequence": "TCTTCGAA", "PBM E-score": -0.00064}
{"sequence": "CTAAGAAC", "PBM E-score": 0.137}
{"sequence": "ATAAGAAC", "PBM E-score": 0.36}
{"sequence": "CACATGAA", "PBM E-score": 0.0326}
{"sequence": "ACGAGTAG", "PBM E-score": 0.00198}
{"sequence": "CAGCACGG", "PBM E-score": -0.0747}
{"sequence": "ATCAGCGG", "PBM E-score": 0.115}
{"sequence": "AACTTATA", "PBM E-score": 0.145}
{"sequence": "CTTCGACC", "PBM E-score": 0.0651}
{"sequence": "AATTTGCC", "PBM E-score": -0.00595}
{"sequence": "ATACCAAT", "PBM E-score": 0.0716}
{"sequence": "CAATGCCG", "PBM E-score": 0.106}
{"sequence": "GATTAGCC", "PBM E-score": 0.0964}
{"sequence": "AAATACGG", "PBM E-score": 0.0268}
{"sequence": "TATTCTCA", "PBM E-score": 0.0618}
{"sequence": "CGGCATAA", "PBM E-score": 0.0678}
{"sequence": "GACTATGA", "PBM E-score": 0.00129}
{"sequence": "CACAGAAA", "PBM E-score": 0.148}
{"sequence": "CCCAAGTC", "PBM E-score": -0.124}
{"sequence": "CCTCTCAC", "PBM E-score": -0.0732}
{"sequence": "GAAACGCA", "PBM E-score": 0.082}
{"sequence": "TTAACCAA", "PBM E-score": 0.125}
{"sequence": "CTGCCTCC", "PBM E-score": -0.0611}
{"sequence": "CTCAGGGC", "PBM E-score": 0.157}
{"sequence": "AAGCCGGG", "PBM E-score": 0.0638}
{"sequence": "TCCCTACA", "PBM E-score": -0.0231}
{"sequence": "AAAGGGGC", "PBM E-score": 0.0155}
{"sequence": "GAATACCA", "PBM E-score": 0.214}
{"sequence": "GTAGGAAC", "PBM E-score": 0.00902}
{"sequence": "CGTTGTGA", "PBM E-score": 0.0983}
{"sequence": "CTTCCGCA", "PBM E-score": -0.0254}
{"sequence": "CTATGGAA", "PBM E-score": -0.0833}
{"sequence": "CGAGTGGC", "PBM E-score": -0.0784}
{"sequence": "ACATATCA", "PBM E-score": 0.155}
{"sequence": "CTGGAAAG", "PBM E-score": 0.115}
{"sequence": "CAAACATG", "PBM E-score": -0.00659}
{"sequence": "ACCTTGGC", "PBM E-score": -0.0628}
{"sequence": "TGCGTCCA", "PBM E-score": -0.0526}
{"sequence": "AGTTCGTA", "PBM E-score": -0.00472}
{"sequence": "AGCCAAAA", "PBM E-score": 0.024}
{"sequence": "ACGTCGTC", "PBM E-score": -0.0295}
{"sequence": "CACAATAC", "PBM E-score": 0.173}
{"sequence": "CTTGGTTC", "PBM E-score": 0.0919}
{"sequence": "CCCGGTAC", "PBM E-score": -0.206}
{"sequence": "ATGCATAA", "PBM E-score": -0.0579}
{"sequence": "CCTGCACA", "PBM E-score": -0.00424}
{"sequence": "CTTGGTGC", "PBM E-score": -0.181}
{"sequence": "GAATCCTA", "PBM E-score": -0.0102}
{"sequence": "ATGCATCC", "PBM E-score": -0.0344}
{"sequence": "AGTCTCGC", "PBM E-score": -0.0578}
{"sequence": "CTAGGGCA", "PBM E-score": -0.255}
{"sequence": "TAGGTGAA", "PBM E-score": 0.161}
{"sequence": "CTCCCCAG", "PBM E-score": -0.157}
{"sequence": "ATGTGTTA", "PBM E-score": 0.0963}
{"sequence": "TCTCTTCA", "PBM E-score": 0.057}
{"sequence": "AAAGCCTA", "PBM E-score": -0.115}
{"sequence": "CGCGTAAA", "PBM E-score": 0.0872}
{"sequence": "GCGACCAA", "PBM E-score": 0.248}
{"sequence": "AACGGCAA", "PBM E-score": 0.156}
{"sequence": "CATTCATA", "PBM E-score": 0.189}
{"sequence": "ACCCTAAG", "PBM E-score": 0.194}
{"sequence": "CTCCTCAC", "PBM E-score": -0.298}
{"sequence": "GTAGTCCA", "PBM E-score": -0.254}
{"sequence": "TACCGTAA", "PBM E-score": -0.0973}
{"sequence": "GCGCGGCA", "PBM E-score": 0.0521}
{"sequence": "AGGGCACG", "PBM E-score": -0.0801}
{"sequence": "AAAGGGTC", "PBM E-score": 0.318}
{"sequence": "GCTATCGA", "PBM E-score": 0.0244}
{"sequence": "TCAACACA", "PBM E-score": 0.235}
{"sequence": "AGTCCAAT", "PBM E-score": 0.0649}
{"sequence": "CTCAATAA", "PBM E-score": -0.103}
{"sequence": "CCTCGTGC", "PBM E-score": -0.0093}
{"sequence": "ACTCATAG", "PBM E-score": -0.0243}
{"sequence": "GCTTAGCA", "PBM E-score": -0.104}
{"sequence": "CAAGCGAC", "PBM E-score": 0.0446}
{"sequence": "CCTCGGAA", "PBM E-score": 0.0214}
